Laboratory results reported in article PMC4081934.
These are yes or no findings as the source states them, for the method shown. In cells and extracts the contact can be indirect. Some entries that bind do so weakly or less than the wild type.

Chains of the proteins cited; added tags and fusions are not shown.
UniProt Q9UNM6: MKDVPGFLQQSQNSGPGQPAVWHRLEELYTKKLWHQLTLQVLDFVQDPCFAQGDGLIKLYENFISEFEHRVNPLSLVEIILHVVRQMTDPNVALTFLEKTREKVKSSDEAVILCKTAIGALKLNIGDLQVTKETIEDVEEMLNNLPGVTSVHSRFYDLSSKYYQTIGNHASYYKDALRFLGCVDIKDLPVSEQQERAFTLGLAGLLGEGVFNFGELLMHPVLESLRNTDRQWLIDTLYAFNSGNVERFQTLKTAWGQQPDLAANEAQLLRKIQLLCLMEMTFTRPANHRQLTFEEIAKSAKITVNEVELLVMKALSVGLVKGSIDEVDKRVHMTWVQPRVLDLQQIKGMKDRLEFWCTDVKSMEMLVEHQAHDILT

Target: PSMD13-FLAG fusion protein (26 S proteasome non-ATPase regulatory subunit 13) (UniProt Q9UNM6)
Assay: co-IP; PSMD13-FLAG co-expressed with WT or mutant RPE65 in 293T-LC cells; lysis in 50 mM Tris-HCl pH 7.4, 150 mM NaCl, 1 mM EDTA, 0.5% Nonidet P-40; anti-FLAG M2 affinity gel; precipitates probed for RPE65 and FLAG

binding: binds weakly
B1: wild-type human RPE65 (enzyme, UniProt Q16518 1-533)
chain: MSIQVEHPAGGYKKLFETVEELSSPLTAHVTGRIPLWLTGSLLRCGPGLFEVGSEPFYHLFDGQALLHKFDFKEGHVTYHRRFIRTDAYVRAMTEKRIVITEFGTCAFPDPCKNIFSRFFSYFRGVEVTDNALVNVYPVGEDYYACTETNFITKINPETLETIKQVDLCNYVSVNGATAHPHIENDGTVYNIGNCFGKNFSIAYNIVKIPPLQADKEDPISKSEIVVQFPCSDRFKPSYVHSFGLTPNYIVFVETPVKINLFKFLSSWSLWGANYMDCFESNETMGVWLHIADKKRKKYLNNKYRTSPFNLFHHINTYEDNGFLIVDLCCWKGFEFVYNYLYLANLRENWEEVKKNARKAPQPEVRRYVLPLNIDKADTGKNLVTLPNTTATAILCSDETIWLEPEVLFSGPRQAFEFPQINYQKYCGKPYTYAYGLGLNHFVPDRLCKLNVKTKETWVWQEPDSYPSEPIFVSHPDALEEDDGVVLSVVVSPGAGQKPAYLLILNAKDLSEVARAEVEINIPVTFHGLFKKS
